Measurements published in PMC4895691, “Suppressor of IKKɛ is an essential negative regulator of pathological cardiac hypertrophy” (Nature Communications, 2016).
These are yes or no findings as the source states them, for the method shown. In cells and extracts the contact can be indirect. Some binding calls cover weakened binding; strength is not graded here. For part of these data: Where a sequence is shown, tags or fusion partners need not be part of it. Values belong to the binder of their own block, whether it stands above or below them.

Tests used:
[1] = molecular target: T1, Tbk1, endogenous in neonatal rat cardiomyocytes (rat (endogenous in neonatal rat cardiomyocytes)) (UniProt D4A7D3); test: co-IP; endogenous proteins, cytoplasmic portion of neonatal rat cardiomyocytes; IP with TBK1 antibody or SIKE antibody; immunoblot
T1 sequence: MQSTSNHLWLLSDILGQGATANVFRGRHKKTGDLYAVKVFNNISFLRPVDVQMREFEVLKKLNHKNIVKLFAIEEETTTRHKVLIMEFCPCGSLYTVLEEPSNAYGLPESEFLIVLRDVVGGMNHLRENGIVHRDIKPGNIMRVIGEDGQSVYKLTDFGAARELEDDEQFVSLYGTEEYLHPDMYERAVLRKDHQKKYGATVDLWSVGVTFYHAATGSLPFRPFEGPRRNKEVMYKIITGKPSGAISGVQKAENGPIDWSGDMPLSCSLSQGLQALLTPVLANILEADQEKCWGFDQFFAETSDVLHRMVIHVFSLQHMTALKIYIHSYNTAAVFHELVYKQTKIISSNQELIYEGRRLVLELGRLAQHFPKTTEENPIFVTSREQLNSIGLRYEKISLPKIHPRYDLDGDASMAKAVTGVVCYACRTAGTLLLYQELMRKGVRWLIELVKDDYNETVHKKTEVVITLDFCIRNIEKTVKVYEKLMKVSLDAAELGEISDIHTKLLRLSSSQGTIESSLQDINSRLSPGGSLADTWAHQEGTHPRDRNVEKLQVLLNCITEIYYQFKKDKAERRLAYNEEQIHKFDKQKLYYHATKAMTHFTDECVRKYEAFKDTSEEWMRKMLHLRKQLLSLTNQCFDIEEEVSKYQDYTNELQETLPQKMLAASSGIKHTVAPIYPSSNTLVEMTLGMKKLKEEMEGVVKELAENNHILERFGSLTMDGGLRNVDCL

[2] = molecular target: T2, Tbk1, endogenous in mouse heart (mouse (endogenous in heart tissue)) (UniProt Q9WUN2); test: co-IP; endogenous proteins, heart tissue of wild-type mice 4 weeks after sham surgery (basal conditions)
T2 sequence: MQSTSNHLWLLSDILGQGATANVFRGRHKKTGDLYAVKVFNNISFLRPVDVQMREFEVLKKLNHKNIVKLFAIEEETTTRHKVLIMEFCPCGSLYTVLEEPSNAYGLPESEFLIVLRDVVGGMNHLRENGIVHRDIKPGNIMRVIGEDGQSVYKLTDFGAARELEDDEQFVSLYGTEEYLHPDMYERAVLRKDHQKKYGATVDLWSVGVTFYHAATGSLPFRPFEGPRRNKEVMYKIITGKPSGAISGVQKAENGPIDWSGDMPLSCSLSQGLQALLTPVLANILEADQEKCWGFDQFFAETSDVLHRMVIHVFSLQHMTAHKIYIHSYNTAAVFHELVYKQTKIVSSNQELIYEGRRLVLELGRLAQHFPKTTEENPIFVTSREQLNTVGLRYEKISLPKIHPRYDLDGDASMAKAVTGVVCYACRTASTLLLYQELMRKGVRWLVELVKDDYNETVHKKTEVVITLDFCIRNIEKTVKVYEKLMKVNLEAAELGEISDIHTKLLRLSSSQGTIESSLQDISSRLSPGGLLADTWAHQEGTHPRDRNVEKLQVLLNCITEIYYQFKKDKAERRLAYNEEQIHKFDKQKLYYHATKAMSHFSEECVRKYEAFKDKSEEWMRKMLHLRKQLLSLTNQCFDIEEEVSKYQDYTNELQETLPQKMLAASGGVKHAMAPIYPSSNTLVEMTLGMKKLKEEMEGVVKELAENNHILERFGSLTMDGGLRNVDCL

[3] = molecular target: T3, Flag-tagged TBK1 (TANK-binding kinase 1), human, full length (human) (UniProt Q9UHD2); test: co-IP; HEK293T cells co-transfected with Myc-SIKE and Flag-TBK1 plasmids (full length or truncates), harvested after 48 h; lysis buffer 20 mM Tris-HCl pH 7.4, 150 mM NaCl, 1 mM EDTA, 1% Triton X-100; IP with Flag or Myc antibody and protein G-agarose, 4 °C overnight; immunoblot
T3 sequence: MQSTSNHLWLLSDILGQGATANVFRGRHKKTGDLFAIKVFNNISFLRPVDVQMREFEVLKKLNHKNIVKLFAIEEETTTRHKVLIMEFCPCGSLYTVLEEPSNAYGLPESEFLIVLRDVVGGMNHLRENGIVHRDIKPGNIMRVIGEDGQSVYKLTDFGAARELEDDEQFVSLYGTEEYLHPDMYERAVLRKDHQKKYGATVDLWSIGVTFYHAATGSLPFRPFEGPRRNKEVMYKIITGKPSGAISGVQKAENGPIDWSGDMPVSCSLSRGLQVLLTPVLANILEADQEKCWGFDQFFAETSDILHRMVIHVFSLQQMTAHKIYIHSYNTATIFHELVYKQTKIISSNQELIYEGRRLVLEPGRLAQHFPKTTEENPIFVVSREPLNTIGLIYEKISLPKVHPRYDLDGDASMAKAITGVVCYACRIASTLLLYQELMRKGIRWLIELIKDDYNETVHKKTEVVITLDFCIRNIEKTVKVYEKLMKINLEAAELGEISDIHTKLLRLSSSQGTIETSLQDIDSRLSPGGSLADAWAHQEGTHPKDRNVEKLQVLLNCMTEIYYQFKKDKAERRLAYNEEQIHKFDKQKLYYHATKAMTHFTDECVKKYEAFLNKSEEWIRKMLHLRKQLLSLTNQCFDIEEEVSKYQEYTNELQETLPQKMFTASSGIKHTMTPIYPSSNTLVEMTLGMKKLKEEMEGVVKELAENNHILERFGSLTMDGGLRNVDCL

binding [1]: binds
B1: Sike, endogenous in neonatal rat cardiomyocytes (protein, UniProt Q5FWT9 1-207)
chain: MSCTIEKILTDAKTLLERLREHDAAAESLVDQSAALHRRVAAMREAGAVLPEQYQEDASDVKDMSKYKPHILLSQENTQIRDLQQENRELWVSLEEHQDALELIMSKYRKQMLQLMVAKQAVDAEPVLKAHQSHSAEIESQIDRICEMGAVMRRAVQVDDNQFCKIQEKLAQLELENKELRELLSISSESLQVGKESSVAPEAQTIR

binding [2]: binds
B2: Sike, endogenous in mouse heart (protein, UniProt Q9CPR7 1-207)
chain: MSCTIEKILTDAKTLLERLREHDAAAESLVDQSAALHRRVAAMREAGAVLPEQYQEDASDVKDMSKYKPHILLSQENTQIRDLQQENRELWVSLEEHQDALELIMSKYRKQMLQLMVAKKAVDAEPVLKAHQSHSAEIESQIDRICEMGAVMRRAVQVDDNQFCKVQERLAQLELENKELRELLSISSESLQVGKESSVAPASQTIK

binding [3]: binds
B3: Myc-tagged SIKE (suppressor of IKKɛ), human, full length (protein, UniProt Q9BRV8 1-207)
chain: MSCTIEKILTDAKTLLERLREHDAAAESLVDQSAALHRRVAAMREAGTALPDQYQEDASDMKDMSKYKPHILLSQENTQIRDLQQENRELWISLEEHQDALELIMSKYRKQMLQLMVAKKAVDAEPVLKAHQSHSAEIESQIDRICEMGEVMRKAVQVDDDQFCKIQEKLAQLELENKELRELLSISSESLQARKENSMDTASQAIK
